Source: PubChem BioAssay AID1224826 (NIAID, 2016)

- Assay: 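Knock-downs that raise or lower Tnf reporter signal after endotoxin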 (primary screen)
- Cell system: RAW264.7 G9 macrophages from mouse bearing reporters for p65 (GFP) and the Tnf promoter (mCherry)
- Reagents: siRNA pool against mouse genes, 100 nM
- Timing: 16 h of LPS stimulation, after 2 days of siRNA transfection
- Conditions: bacterial lipopolysaccharide (Salmonella minnesota R595), 10 ng/ml
- Detection: 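Nuclear mCherry signal of the Tnf promoter reporter measured by imaging after background removal, scaled to each plate median and turned into robust z-scores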
- Reading the numbers: Tnf reporter robust z-score: higher = stronger Tnf promoter reporter signal after LPS
- Hit rule: 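a well counts as active at a score of -1.3 or below (Tlr4 knock-down control median) or above 3 (raised signal); controls and wells holding fewer than 50 cells are excluded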
- Meaning of the calls: active = Tnf reporter clearly lowered or raised; inactive = no clear change in Tnf reporter
This is an unselected part of about 17,000 reagents tested. About 1,110 of them (6.6%) count as active. 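Active means lowered or raised reporter signal; replicate intensities are raw and not normalised per plate.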 Entries without a mark were called inactive. Not all columns of the deposit are shown.

Knock-down of Gfus (GDP-L-fucose synthase) gave: Tnf reporter robust z-score -0.61; fewer than 50 cells in well enough cells in well.
After knock-down of Lins1 (lines homolog 1), the screen gave Tnf reporter robust z-score 0.13; fewer than 50 cells in well enough cells in well.
Ints13 (integrator complex subunit 13) showed Tnf reporter robust z-score -0.38; fewer than 50 cells in well enough cells in well.
Bmp3 (bone morphogenetic protein 3) scored Tnf reporter robust z-score -2 (active); fewer than 50 cells in well enough cells in well.
With knock-down of Tmc7 (transmembrane channel-like gene family 7) the results were fewer than 50 cells in well fewer than 50 cells per well; well left out of calls.
Thoc1 (THO complex 1) showed Tnf reporter robust z-score -1.1; fewer than 50 cells in well enough cells in well.
For Taf12 (TATA-box binding protein associated factor 12), the entry reads Tnf reporter robust z-score 4.3 (active); fewer than 50 cells in well enough cells in well.
Lamtor1 (late endosomal/lysosomal adaptor, MAPK and MTOR activator 1) gave fewer than 50 cells in well fewer than 50 cells per well; well left out of calls.
Knock-down of Itfg2 (integrin alpha FG-GAP repeat containing 2) came out at: Tnf reporter robust z-score 2.57; fewer than 50 cells in well enough cells in well.
A930017M01Rik (RIKEN cDNA A930017M01 gene) gave Tnf reporter robust z-score 1.39; fewer than 50 cells in well enough cells in well.

Entries listed so far with an active call, once more:
Bmp3 (bone morphogenetic protein 3) | Tnf reporter robust z-score = -2 (active); fewer than 50 cells in well = enough cells in well
Taf12 (TATA-box binding protein associated factor 12) | Tnf reporter robust z-score = 4.3 (active); fewer than 50 cells in well = enough cells in well

The listing continues.
After knock-down of H1f10 (H1.10 linker histone) the results were Tnf reporter robust z-score -0.57; fewer than 50 cells in well enough cells in well.
After knock-down of Or5w18 (olfactory receptor family 5 subfamily W member 18) the results were Tnf reporter robust z-score -0.15; fewer than 50 cells in well enough cells in well.
Crybg3 (beta-gamma crystallin domain containing 3) scored Tnf reporter robust z-score 1.97; fewer than 50 cells in well enough cells in well.
Against Lkaaear1 (LKAAEAR motif containing 1 (IKAAEAR murine motif)), the values are Tnf reporter robust z-score 1.36; fewer than 50 cells in well enough cells in well.
With knock-down of Hdac8 (histone deacetylase 8), the screen gave Tnf reporter robust z-score -0.92; fewer than 50 cells in well enough cells in well.
Silencing of Naa10 (N(alpha)-acetyltransferase 10, NatA catalytic subunit) resulted in: Tnf reporter robust z-score -1.04; fewer than 50 cells in well enough cells in well.
Arl11 (ADP-ribosylation factor-like 11) gave Tnf reporter robust z-score 1.43; fewer than 50 cells in well enough cells in well.
Eif3b (eukaryotic translation initiation factor 3, subunit B) showed Tnf reporter robust z-score -1.67 (active); fewer than 50 cells in well enough cells in well.
After knock-down of Vmn1r74 (vomeronasal 1 receptor 74) the results were Tnf reporter robust z-score 1.23; fewer than 50 cells in well enough cells in well.
Against Ncf2 (neutrophil cytosolic factor 2), the values are Tnf reporter robust z-score -0.97; fewer than 50 cells in well enough cells in well.
Against Coil (coilin), the entry reads Tnf reporter robust z-score -0.8; fewer than 50 cells in well enough cells in well.
After knock-down of Syt2 (synaptotagmin II), the record shows Tnf reporter robust z-score -0.36; fewer than 50 cells in well enough cells in well.
Against Or8b3b (olfactory receptor family 8 subfamily B member 3B) the deposit lists Tnf reporter robust z-score -0.59; fewer than 50 cells in well enough cells in well.
After knock-down of Svopl (SV2 related protein homolog (rat)-like) the results were Tnf reporter robust z-score -1.52 (active); fewer than 50 cells in well enough cells in well.
Against Vti1b (vesicle transport through interaction with t-SNAREs 1B) the deposit lists Tnf reporter robust z-score 0.66; fewer than 50 cells in well enough cells in well.
Against Gmpr (guanosine monophosphate reductase), the values are Tnf reporter robust z-score 1.19; fewer than 50 cells in well enough cells in well.
For Antkmt (adenine nucleotide translocase lysine methyltransferase), the values are Tnf reporter robust z-score -0.12; fewer than 50 cells in well enough cells in well.
